Assay results from the supplement of paper PMC6078165.
The reference is the same well before dosing, and untreated signal decays as well.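 Labels refer to human fibroblasts, largely primary: uterine (C12385, HUF), lung (H6013), bone (Hs27A), adrenal (HADF), skin (WS1), plus mammary HMF and breast cancer-associated Hs343T. Cancer lines are basal-like or mesenchymal-like triple-negative breast cancer. The paper counts as hits responses shifting over 3x the replicate standard deviation. The tissue of the other fibroblasts is not given here.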

Test system: BT20
Assay: relative JC-1 red fluorescence (viability) vs pre-drug, coculture with fibroblast (fraction); higher = more viable cancer cells
Description: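 JC-1 labelled TNBC cells cocultured 1:1 (1,500 cells each) with CellTrace Violet stained primary or stromal fibroblasts in 384-well plates in FluoroBrite medium, treated with one of 42 anticancer drugs at 0.1, 1, 10 or 100 uM. JC-1 red fluorescence (mitochondrial integrity in cancer cells only) was read by plate reader every 8 h for 72 h. Values are normalised to each well's pre-drug value. The stock of one drug was tenfold lower, so its dose labels may be too high.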

CC(C)(C#N)c1cc(Cn2cncn2)cc(C(C)(C)C#N)c1 [Anastrozole]
relative JC-1 red fluorescence
Conditions	8 h	16 h	24 h	32 h	40 h	48 h	56 h	64 h	72 h
0.1 µM, coculture fibroblast: C12385	0.932	0.86	0.788	0.728	0.65	0.599	0.562	0.525	0.504
0.1 µM, coculture fibroblast: H6013	0.9083	0.8467	0.821	0.77	0.738	0.714	0.72	0.704	0.686
0.1 µM, coculture fibroblast: H6019	0.83	0.76	0.737	0.67738	0.629	0.602	0.574	0.566	0.552
0.1 µM, coculture fibroblast: H6076	0.885	0.896	0.782	0.737	0.6891	0.652	0.637	0.62	0.604
0.1 µM, coculture fibroblast: H6231	0.752	0.926	0.815	0.743	0.7	0.638	0.59	0.5655	0.546
0.1 µM, coculture fibroblast: HADF	0.879	0.8921	0.8248	0.806	0.765	0.7097	0.698	0.679	0.647
0.1 µM, coculture fibroblast: HCFa	0.891	0.841	0.8057	0.7399	0.6877	0.647	0.609	0.576	0.53
0.1 µM, coculture fibroblast: HCPF	0.954	0.8628	0.8082	0.769	0.733	0.696	0.651	0.659	0.632
0.1 µM, coculture fibroblast: HHSteC	0.9287	0.861	0.8	0.718	0.655	0.61	0.58	0.554	0.522
0.1 µM, coculture fibroblast: HMF	0.9352	–	0.74	0.662	0.623	0.575	0.541	0.508	0.483
0.1 µM, coculture fibroblast: HPFa	0.953	0.821	0.775	0.689	0.645	0.599	0.555	0.513	0.467
0.1 µM, coculture fibroblast: HUF	0.9122	0.819	0.771	0.692	0.635	0.591	0.557	0.529	0.515
0.1 µM, coculture fibroblast: Hs5	0.786	0.922	0.859	0.818	0.77	0.737	0.706	0.67	0.636
0.1 µM, coculture fibroblast: Hs27A	0.807	0.933	0.824	0.95	0.91	0.904	0.895	0.874	0.836
0.1 µM, coculture fibroblast: Hs343T	0.9751	0.8692	0.772	0.72	0.66	0.615	0.578	0.564	0.533
0.1 µM, coculture fibroblast: WS1	0.84968	0.745	0.681	0.609	0.54	0.498	0.4659	0.4428	0.432
1 µM, coculture fibroblast: C12385	0.899	0.816	0.757	0.694	0.647	0.616	0.592	0.5691	0.5537
1 µM, coculture fibroblast: H6013	0.955	0.8787	0.825	0.788	0.742	0.726	0.717	0.697	0.685
1 µM, coculture fibroblast: H6019	0.865	0.8	0.7958	0.7564	0.7192	0.708	0.678	0.66	0.645
1 µM, coculture fibroblast: H6076	0.962	0.911	0.842	0.812	0.777	0.756	0.741	0.732	0.713
1 µM, coculture fibroblast: H6231	0.781	0.904	0.809	0.739	0.702	0.652	0.612	0.589	0.557
1 µM, coculture fibroblast: HADF	0.9869	0.9232	0.8283	0.782	0.747	0.715	0.705	0.689	0.668
1 µM, coculture fibroblast: HCFa	0.92	0.822	0.832	0.778	0.729	0.697	0.666	0.641	0.593
1 µM, coculture fibroblast: HCPF	0.849	0.89	0.816	0.776	0.739	0.695	0.647	0.629	0.592
1 µM, coculture fibroblast: HHSteC	0.919	0.852	0.858	0.777	0.724	0.697	0.672	0.651	0.628
1 µM, coculture fibroblast: HMF	0.85	0.9094	0.794	0.736	0.676	0.626	0.591	0.564	0.539
1 µM, coculture fibroblast: HPFa	0.958	0.886	0.897	0.801	0.78	0.732	0.712	0.682	0.632
1 µM, coculture fibroblast: HUF	0.9154	0.801	0.737	0.655	0.588	0.54	0.509	0.475	0.459
1 µM, coculture fibroblast: Hs5	0.898	0.88	0.8328	0.782	0.747	0.717	0.685	0.658	0.623
1 µM, coculture fibroblast: Hs27A	0.869	0.913	0.889	0.897	0.853	0.839	0.815	0.791	0.734
1 µM, coculture fibroblast: Hs343T	0.905	0.845	0.753	0.688	0.621	0.573	0.515	0.481	0.44
1 µM, coculture fibroblast: WS1	0.87736	0.79007	0.713	0.648	0.585	0.552	0.51	0.477	0.461
10 µM, coculture fibroblast: C12385	0.90435	0.794	0.763	0.704	0.648	0.612	0.585	0.551	0.528
10 µM, coculture fibroblast: H6013	0.928	0.8649	0.833	0.799	0.758	0.753	0.75	0.737	0.721
10 µM, coculture fibroblast: H6019	0.8921	0.814	0.797	0.725	0.67	0.643	0.598	0.565	0.542
10 µM, coculture fibroblast: H6076	0.985	0.895	0.808	0.765	0.73	0.699	0.685	0.677	0.659
10 µM, coculture fibroblast: H6231	0.835	0.955	0.832	0.766	0.715	0.662	0.62	0.588	0.543
10 µM, coculture fibroblast: HADF	0.812	0.88659	0.838	0.804	0.761	0.723	0.704	0.688	0.65
10 µM, coculture fibroblast: HCFa	0.934	0.862	0.838	0.774	0.741	0.708	0.686	0.673	0.642
10 µM, coculture fibroblast: HCPF	0.875	0.92	0.849	0.8042	0.7618	0.7146	0.668	0.655	0.605
10 µM, coculture fibroblast: HHSteC	0.9325	0.84	0.818	0.743	0.686	0.647	0.624	0.601	0.577
10 µM, coculture fibroblast: HMF	0.923	0.9	0.799	0.744	0.701	0.656	0.611	0.576	0.54
10 µM, coculture fibroblast: HPFa	0.954	0.86	0.853	0.762	0.723	0.674	0.639	0.608	0.555
10 µM, coculture fibroblast: HUF	0.954	0.835	0.822	0.744	0.693	0.655	0.635	0.612	0.601
10 µM, coculture fibroblast: Hs5	0.912	0.92	0.848	0.797	0.7517	0.709	0.668	0.635	0.606
10 µM, coculture fibroblast: Hs27A	0.81157	0.856	0.88498	0.891	0.821	0.79	0.761	0.723	0.6626
10 µM, coculture fibroblast: Hs343T	0.968	0.876	0.764	0.714	0.667	0.616	0.575	0.556	0.515
10 µM, coculture fibroblast: WS1	0.8539	0.772	0.731	0.655	0.6	0.559	0.518	0.482	0.454
100 µM, coculture fibroblast: C12385	0.8727	0.798	0.745	0.693	0.6449	0.6161	0.59372	0.5633	0.54388
100 µM, coculture fibroblast: H6013	0.95426	0.9239	0.898	0.87	0.825	0.81	0.803	0.783	0.763
100 µM, coculture fibroblast: H6019	0.8517	0.787	0.771	0.721	0.6811	0.68	0.6543	0.6396	0.6261
100 µM, coculture fibroblast: H6076	0.827	0.914	0.848	0.821	0.792	0.767	0.743	0.74	0.712
100 µM, coculture fibroblast: H6231	0.906	0.913	0.821	0.7501	0.7117	0.661	0.62278	0.6125	0.5755
100 µM, coculture fibroblast: HADF	0.849	0.915	0.8784	0.8467	0.808	0.775	0.737	0.718	0.68
100 µM, coculture fibroblast: HCFa	0.931	0.85092	0.8249	0.7785	0.7333	0.7021	0.6743	0.6544	0.61724
100 µM, coculture fibroblast: HCPF	0.788	0.95079	0.863	0.824	0.797	0.745	0.702	0.679	0.637
100 µM, coculture fibroblast: HHSteC	0.9418	0.934	0.956	0.918	0.915	0.912	0.913	0.893	0.879
100 µM, coculture fibroblast: HMF	0.9868	0.8493	0.773	0.7119	0.68	0.646	0.615	0.5908	0.5499
100 µM, coculture fibroblast: HPFa	0.913	0.8166	0.8145	0.73739	0.7066	0.668	0.637	0.597	0.54
100 µM, coculture fibroblast: HUF	0.907	0.808	0.758	0.68	0.635	0.6	0.575	0.553	0.532
100 µM, coculture fibroblast: Hs5	0.9751	0.8917	0.845	0.7976	0.7652	0.7329	0.7055	0.683	0.654
100 µM, coculture fibroblast: Hs27A	0.816	0.9106	0.9759	0.988	0.951	0.938	0.924	0.897	0.8427
100 µM, coculture fibroblast: Hs343T	0.865	0.897	0.815	0.754	0.711	0.66	0.601	0.573	0.536
100 µM, coculture fibroblast: WS1	0.8605	0.8001	0.7931	0.7351	0.6844	0.6621	0.6324	0.601	0.585
